# Laboratory results published in patent publication US11529511B2, “Using alternating electric fields to increase cell membrane permeability” (The Board of Trustees of the Leland Stanford Junior …, priority 2018, dated 2022).
# At least one structure is not confirmed: it was looked up by name or label, or the drawing left a doubt.
# System: U87-MG/eGFP-fLuc cells
# Test: Ethidium D uptake, TTFields vs. no TTFields
# Format: cell-based, human
# Conditions: 200 kHz TTFields vs. no TTFields, p<0.0001
structure (smiles),measurement,value
"CC[n+]1c(-c2ccccc2)c2cc(N)ccc2c2ccc(N)cc21 [Ethidium D, ethidium bromide]",uptake,significantly increased
